These are yes or no findings as the source states them, for the method shown. Some binding calls cover weakened binding; strength is not graded here. For some of these results: Tags and fused reporters may be left off the sequences shown.

Test [1] addresses T1, human CD100-Fc (human) (UniProt Q92854).
T1 sequence (looked up): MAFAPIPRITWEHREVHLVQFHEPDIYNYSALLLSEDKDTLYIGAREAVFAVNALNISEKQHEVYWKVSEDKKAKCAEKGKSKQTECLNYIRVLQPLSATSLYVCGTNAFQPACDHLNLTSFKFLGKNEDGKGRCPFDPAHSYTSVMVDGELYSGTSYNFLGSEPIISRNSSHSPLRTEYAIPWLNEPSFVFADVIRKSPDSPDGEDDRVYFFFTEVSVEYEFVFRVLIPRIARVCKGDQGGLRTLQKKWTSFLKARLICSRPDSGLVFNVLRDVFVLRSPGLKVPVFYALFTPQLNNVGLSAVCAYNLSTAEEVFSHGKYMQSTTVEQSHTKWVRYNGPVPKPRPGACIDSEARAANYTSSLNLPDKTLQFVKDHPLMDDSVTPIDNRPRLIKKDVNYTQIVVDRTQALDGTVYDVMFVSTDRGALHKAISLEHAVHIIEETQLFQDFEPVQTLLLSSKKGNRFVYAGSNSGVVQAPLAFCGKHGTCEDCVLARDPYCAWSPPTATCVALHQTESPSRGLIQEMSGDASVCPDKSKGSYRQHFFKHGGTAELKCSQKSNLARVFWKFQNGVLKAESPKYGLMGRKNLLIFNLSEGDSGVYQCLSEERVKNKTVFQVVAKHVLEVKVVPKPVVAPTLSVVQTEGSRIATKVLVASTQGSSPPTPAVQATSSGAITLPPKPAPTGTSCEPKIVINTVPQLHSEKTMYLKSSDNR
As to the kind of experiment: ELISA. (ELISA stands for enzyme-linked immunosorbent assay.)

Test [2] concerns the target T2, CD100-AP (Homo sapiens (Human)) (UniProt Q92854).
T2 sequence: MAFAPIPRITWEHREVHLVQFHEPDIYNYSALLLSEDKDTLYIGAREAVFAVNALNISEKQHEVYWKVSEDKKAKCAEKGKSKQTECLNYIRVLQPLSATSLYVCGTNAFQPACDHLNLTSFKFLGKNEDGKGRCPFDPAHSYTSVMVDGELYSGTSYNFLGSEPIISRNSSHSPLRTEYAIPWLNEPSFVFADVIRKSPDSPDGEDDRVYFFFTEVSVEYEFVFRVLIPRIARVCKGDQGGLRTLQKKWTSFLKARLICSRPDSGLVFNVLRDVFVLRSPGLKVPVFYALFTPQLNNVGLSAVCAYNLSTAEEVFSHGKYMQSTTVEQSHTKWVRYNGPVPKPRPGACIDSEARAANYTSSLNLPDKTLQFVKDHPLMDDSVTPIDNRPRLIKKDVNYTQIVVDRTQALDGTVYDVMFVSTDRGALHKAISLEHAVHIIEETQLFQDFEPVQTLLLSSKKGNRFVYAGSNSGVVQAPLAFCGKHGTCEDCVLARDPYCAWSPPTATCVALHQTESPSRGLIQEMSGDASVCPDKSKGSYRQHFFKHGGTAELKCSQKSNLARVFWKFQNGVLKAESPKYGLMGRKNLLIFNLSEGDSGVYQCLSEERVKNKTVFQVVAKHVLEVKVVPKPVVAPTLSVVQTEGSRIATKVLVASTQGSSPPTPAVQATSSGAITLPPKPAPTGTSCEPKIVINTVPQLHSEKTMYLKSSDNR
The test is described as follows: blocking of CD100-AP (20 ng) binding to Plexin B1 on 293/Plexin B1 cells after preincubation with the antibody, flow cytometry. In general terms: Flow cytometry measures light scatter and fluorescence of single cells or particles in a stream.

The target of another test is T3, human CD100-His (human) (UniProt Q92854).
T3 sequence (looked up): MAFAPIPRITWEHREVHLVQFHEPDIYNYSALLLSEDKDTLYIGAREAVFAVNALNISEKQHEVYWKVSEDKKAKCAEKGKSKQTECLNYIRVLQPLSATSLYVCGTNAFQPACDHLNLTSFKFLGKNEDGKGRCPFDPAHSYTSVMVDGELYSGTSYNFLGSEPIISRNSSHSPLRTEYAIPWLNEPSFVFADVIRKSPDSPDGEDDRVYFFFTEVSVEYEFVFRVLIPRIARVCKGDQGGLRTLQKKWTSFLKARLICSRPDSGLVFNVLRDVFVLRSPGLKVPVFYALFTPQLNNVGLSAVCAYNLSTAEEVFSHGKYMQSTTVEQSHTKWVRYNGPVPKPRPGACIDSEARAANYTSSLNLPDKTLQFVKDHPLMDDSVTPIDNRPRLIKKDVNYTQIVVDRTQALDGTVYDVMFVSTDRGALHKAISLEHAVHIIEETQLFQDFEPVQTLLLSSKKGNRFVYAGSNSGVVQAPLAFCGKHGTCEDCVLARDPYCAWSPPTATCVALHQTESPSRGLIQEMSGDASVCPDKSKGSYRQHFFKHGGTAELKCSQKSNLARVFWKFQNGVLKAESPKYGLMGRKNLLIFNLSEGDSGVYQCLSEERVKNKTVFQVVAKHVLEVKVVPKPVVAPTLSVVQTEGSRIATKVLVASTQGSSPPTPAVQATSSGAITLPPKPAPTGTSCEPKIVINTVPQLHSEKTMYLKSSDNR
The test is described as follows: blocking of CD100-His (20 ng) binding to Plexin B1 on 293/Plexin B1 cells after preincubation with the antibody, flow cytometry.

For test [3], the target named is T2, CD100-AP (Homo sapiens (Human)). As to the kind of experiment: blocking of CD100-AP binding to Plexin B1 on COS/Plexin B1 cells after preincubation with the antibody, alkaline phosphatase staining; concentration not shown.
In test [4] the target is T1, human CD100-Fc (human). The test is described as follows: ELISA on CD100-Fc antigen.
The target in test [5] is T1, human CD100-Fc (human). The test is described as follows: competition ELISA on coated CD100-Fc; BD16 pre-bound.
The target in test [6] is T1, human CD100-Fc (human). As to the kind of experiment: competition ELISA on CD100-Fc: BD16 titrated against 5 ng/ml MAb 301, bound MAb 301 detected with anti-human Kappa HRP [FIG. 4B].
The target of test [7] is T1, human CD100-Fc (human). The test is described as follows: competition ELISA on CD100-Fc: BD16 titrated against 5 ng/ml MAb 657, bound MAb 657 detected with anti-human Kappa HRP [FIG. 4B].

B1: MAb 1808 (antibody, human IgG4, V domains shown)
VH: QVQLVQSGAEVKKPGSSVKVSCKASGYTFTDYYMDWVRQAPGQGLEWMGRVNPYHGGATYNQKFKGRVTITADKSTSTAYMELSSLRSEDTAVYYCAREENSYDGYYGMDYWGQGTLVTVSS
VL: DIVMTQSPLSLPVSPGEPATINCKSSQSLFNSGNQKNYLAWYLQKPGQPPKLLIYGASTRESGVPDRFSGSGSGTDFTLTISSLQAEDVAVYYCQNDHTYPYTFGQGTKLEIK
Turning to B1, the binding entry (in the test with human CD100-Fc (human) [1]; in test [2]; with human CD100-His (human); in test [3]) was “binds” each time.

B2: MAb 1807 (antibody, human IgG4, V domains shown)
VH: QVQLVQSGAEVKKPGSSVKVSCKASGYTFTDYYMDWVRQAPGQGLEWIGRVNPYHGGATYNQKFKGKATITVDKSTSTAYMELSSLRSEDTAVYYCAREENSYDGYYGMDYWGQGTLVTVSS
VL: DIVMTQSPLSLPVSPGEPATINCKSSQSLFNSGNQKNYLAWYLQKPGQPPKLLIYGASTRESGVPDRFSGSGSGTDFTLTISSLQAEDVAVYYCQNDHTYPYTFGQGTKLEIK
As to B2, the binding result with human CD100-Fc (human) [1] is recorded as “binds”.

B3: MAb 657 (antibody, human IgG1, V domains shown)
VH: QVQLVQSGAEVKKPGSSVKVSCKASGYTFTDYYMDWVRQAPGQGLEWIGRVNPYHGGATYNQKFKGKATITVDKSTSTAYMELSSLRSEDTAVYYCAREENSYDGYYGMDYWGQGTLVTVSS
VL: DIVMTQSPLSLPVSPGEPATINCKSSQSLFNSGNQKNYLAWYLQKPGQPPKLLIYGASTRESGVPDRFSGSGSGTDFTLTISSLQAEDVAVYYCQNDHTYPYTFGQGTKLEIK
With B3, the binding result with human CD100-Fc (human) [1] and with human CD100-Fc (human) [4] was “binds” each time.

B4: MAb 1656 (antibody, human IgG1, V domains shown)
VH: QVQLVQSGAEVKKPGSSVKVSCKASGYTFTDYYMDWVRQAPGQGLEWMGRVNPYHGGATYNQKFKGRVTITADKSTSTAYMELSSLRSEDTAVYYCAREENSYDGYYGMDYWGQGTLVTVSS
VL: DIVMTQSPLSLPVSPGEPATINCKSSQSLFNSGNQKNYLAWYLQKPGQPPKLLIYGASTRESGVPDRFSGSGSGTDFTLTISSLQAEDVAVYYCQNDHTYPYTFGQGTKLEIK
On to B4, for which the binding result with human CD100-Fc (human) [1] is listed as “binds”.

B5: MAb 301 (antibody, human IgG1, V domains shown)
VH: EVQLQQSGPELVKPGASVKMSCKASGYTFTDYYMDWVKQSHGESFEWIGRVNPYHGGATYNQKFKGKATLTVDKSSRTAYMELNSLTYEDSAVYYCAREENSYDGYYGMDYWGQGTTVTVSS
VL: DIVLTQSPSSLSVSAGEKVTMDCKSSQSLFNSGNQKNYLAWYHQKPGQPPKLLIYGASTRESGVPDRFTGSGSGTDFTLTISSVQAEDLAVYYCQNDHTYPYTFGGGTKLEIK
As to B5, the binding result with human CD100-Fc (human) [1] and with human CD100-Fc (human) [4] was “binds” each time.

B6: BD16 (antibody, V domains shown)
VH: EVQLQQSGPELVKPGASVKMSCKASGYTFTDYYMDWVKQSHGESFEWIGRVNPYHGGATYNQKFKGKATLTVDKSSRTAYMELNSLTYEDSAVYYCAREENSYDGYYGMDYWGQGTTVTVSS
VL: DIVLTQSPSSLSVSAGEKVTMDCKSSQSLFNSGNQKNYLAWYHQKPGQPPKLLIYGASTRESGVPDRFTGSGSGTDFTLTISSVQAEDLAVYYCQNDHTYPYTFGGGTKLEIK
As for B6, the binding entry (in the test with human CD100-Fc (human) [5]; in test [2]; in the test with human CD100-His (human); in the test with human CD100-Fc (human) [6]; with human CD100-Fc (human) [7]; in test [3]) was “binds” throughout.

These data come from US20080219971A1.
